Publication PMC11528518
No constants are given. Whether binding was seen depends on the method and setting. Binding seen in cells or lysates may run through a third protein. Some results given as binding are weak or reduced against the parent protein; the word gives no strength. Where a sequence is shown, tags or fusion partners need not be part of it.

Protein sequences, listed by entry. Tags and fused reporters are not part of them.
UniProt Q9WUK6: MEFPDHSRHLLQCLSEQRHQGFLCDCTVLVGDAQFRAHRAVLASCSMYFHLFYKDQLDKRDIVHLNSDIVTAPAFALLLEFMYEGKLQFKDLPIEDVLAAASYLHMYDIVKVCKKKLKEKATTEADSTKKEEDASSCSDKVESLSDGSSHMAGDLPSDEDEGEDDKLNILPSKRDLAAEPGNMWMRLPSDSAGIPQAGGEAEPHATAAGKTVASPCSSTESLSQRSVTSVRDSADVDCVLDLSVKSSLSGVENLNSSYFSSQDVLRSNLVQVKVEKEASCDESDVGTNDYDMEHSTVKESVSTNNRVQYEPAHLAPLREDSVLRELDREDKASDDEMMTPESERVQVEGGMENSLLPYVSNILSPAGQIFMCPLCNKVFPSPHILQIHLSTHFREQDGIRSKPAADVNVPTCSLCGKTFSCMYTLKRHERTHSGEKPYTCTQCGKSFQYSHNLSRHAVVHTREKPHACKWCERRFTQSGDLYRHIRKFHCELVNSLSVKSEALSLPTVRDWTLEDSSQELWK

Molecular target: ZBTB18 (mouse (endogenous in 32D)) (UniProt Q9WUK6)
Assay: co-IP; immunoprecipitation with ZBTB18 antibodies from 32D cells transfected with Flag-p21 plasmid; Western blot for p21

B1: Flag-tagged p21 (protein, UniProt P39689 1-159)
chain: MSNPGDVRPVPHRSKVCRCLFGPVDSEQLRRDCDALMAGCLQEARERWNFDFVTETPLEGNFVWERVRSLGLPKVYLSPGSRSRDDLGGDKRPSTSSALLQGPAPEDHVALSLSCTLVSERPEDSPGGPGTSQGRKRRQTSLTDFYHSKRRLVFCKRKP
Q: How did the binding turn out when B1 was run?
A: The binding was “binds”.
